These results are taken from the supplement of paper PMC10735217.

Structures can show the parent of a compound that is named as a salt. Some of the results follow. Repeats in this data set agree poorly, so a single value says little.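 In a drug-repurposing library screen, luminescence reads luciferase driven by eight TEAD-binding elements, stably integrated into human kidney-derived cells. Compounds scoring over five robust Z scores above the plate mean are called hits.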

The experiment relates to HEK293A TEAD-LUC reporter. Briefly: TEAD-luciferase reporter activity (YAP activation), robust Z score vs plate; higher = stronger YAP/TEAD activation. To be noted: 24 h.

In the case of `O=c1c2c([nH]c3ccccc13)[C@H](c1ccc3c(c1)CCO3)N(c1ncc(-c3ccccn3)cn1)C2`, the TEAD-luciferase reporter activity reads like this: (compound concentration: 200 nM) inactive: -0.3; (compound concentration: 2 uM) inactive: 0.261; (compound concentration: 10 uM) inactive: -0.709.
For `CCCNCCc1ccc(NS(=O)(=O)c2ccc(OC(F)(F)F)cc2)cc1`, in that order: inactive: -1.57, inactive: -0.229 and inactive: 0.513.
For the compound `CCC(C)OC(=O)N1CCCCC1CCO` (stereo not given), the TEAD-luciferase reporter activity (compound concentration: 200 nM) is inactive: 3.82, the TEAD-luciferase reporter activity (compound concentration: 2 uM) was inactive: 0.747 and the TEAD-luciferase reporter activity (compound concentration: 10 uM) is inactive: 1.91.
For `CC1(C)OC2(C)C(O)CC1CC2O` (stereo not given) [epomediol] the same measures were inactive: 0.00556, inactive: -0.674 and inactive: 2.85.
For `CS(=O)(=O)c1ccc(C2=C(c3ccc(F)cc3)CCC2)cc1` the same measures were inactive: 0.0264, inactive: 0.594 and inactive: 0.395.
As to `NCCCC[C@H](NC(=O)[C@@H](NC(=O)[C@H](Cc1c[nH]c2ccccc12)NC(=O)[C@H](CCCCN)NC(=O)[C@H](CCCCN)NC(=O)[C@H](Cc1c[nH]c2ccccc12)NC(=O)[C@H](Cc1c[nH]c2ccccc12)NC(=O)[C@H](CCCCN)NC(=O)[C@@H](N)CCCCN)C(c1ccccc1)c1ccccc1)C(N)=O`, the TEAD-luciferase reporter activity (compound concentration: 200 nM) is inactive: -1.3, the TEAD-luciferase reporter activity (compound concentration: 2 uM) is inactive: -0.015 and the TEAD-luciferase reporter activity (compound concentration: 10 uM) was inactive: -0.419.
For `COc1ccccc1-c1csc(Cc2nc[nH]c2C)n1`, in that order: inactive: -0.564, inactive: -2.35 and inactive: 4.42.
For the compound `N#Cc1ccc(CN2CCCCC23Cc2ccccc2CNC3=O)cc1` (stereo not given), the TEAD-luciferase reporter activity is inactive: 4.89 (compound concentration: 200 nM) and active: 7.77 (compound concentration: 10 uM).
For the compound `CC1(C)C(=O)N=C2C1=C(O)C(=O)c1ccccc12`, the TEAD-luciferase reporter activity was inactive: -0.137 (compound concentration: 200 nM), inactive: -0.846 (compound concentration: 2 uM) and inactive: -0.797 (compound concentration: 10 uM).
For `O=C(O)CCC(=O)N1Cc2ccccc2CC2(CCCCN2CC2CCCC2)C1` (stereo not given), the TEAD-luciferase reporter activity is inactive: -0.412 (compound concentration: 200 nM) and inactive: 2.17 (compound concentration: 10 uM).
Regarding `COC(=O)/C=C/C(=O)OC` [Dimethyl fumarate], the TEAD-luciferase reporter activity (compound concentration: 200 nM) is inactive: 0.26, the TEAD-luciferase reporter activity (compound concentration: 2 uM) was inactive: -1.19 and the TEAD-luciferase reporter activity (compound concentration: 10 uM) was inactive: 0.73.
For `O=C(CNCC(=O)Nc1ccccc1)Nc1ccccc1`, in that order: inactive: -2.4, inactive: -0.394 and inactive: 2.75.
For `Oc1nc2cccc(N3CCN(Cc4cccc(-c5ccccc5)c4)CC3)c2o1` [Bifeprunox mesilate], in that order: inactive: -0.495, inactive: 0.923 and inactive: -1.5.
For the compound `Cc1nc2n(n1)C(N1CCN(C)CC1)=Nc1ccccc1C2`, the TEAD-luciferase reporter activity runs as follows: (compound concentration: 200 nM) inactive: 0.18; (compound concentration: 2 uM) inactive: 0.385; (compound concentration: 10 uM) inactive: 0.0647.
For `CCc1cn(C2CC(O)C(CO)O2)c(=O)[nH]c1=O` (stereo not given), in that order: inactive: -0.602, inactive: 2.76 and inactive: -1.66.
`C[C@H]1CN(c2c(F)cc3c(=O)c(C(=O)O)cn(C4CC4)c3c2OC(F)F)CCN1`: the TEAD-luciferase reporter activity (compound concentration: 200 nM) is inactive: -1.34, the TEAD-luciferase reporter activity (compound concentration: 2 uM) is inactive: 1.94 and the TEAD-luciferase reporter activity (compound concentration: 10 uM) is inactive: 0.509.
For `O=C(O)CCc1ccccc1Oc1ccc(Cl)cc1Cl` the same measures were inactive: -0.188, inactive: -1.15 and inactive: 0.00317.
For `O=C(Cc1ccc(-c2ccccc2)cc1)NCCN1CCCCC1`, in that order: inactive: -4, inactive: 0.953 and inactive: 2.72.
For `CC1CCCC2N(C)C=C(C(N)=O)C(=O)N12` (stereo not given) the same measures were inactive: 1.07, inactive: -0.151 and inactive: 0.694.
`CC(=O)NC[C@H]1CN(c2ccc(-n3cc(C#N)cn3)c(F)c2)C(=O)O1`: the TEAD-luciferase reporter activity was inactive: -1.52 (compound concentration: 200 nM), inactive: 0.0415 (compound concentration: 2 uM) and inactive: 3.5 (compound concentration: 10 uM).
For the compound `OC1CN(CCCOCCc2ccc3sccc3c2)C1`, the TEAD-luciferase reporter activity runs as follows: (compound concentration: 200 nM) inactive: 0.129; (compound concentration: 2 uM) inactive: -0.256; (compound concentration: 10 uM) inactive: -0.201.
For `COc1ccc(OC(C)C(=O)O)cc1` (stereo not given) the same measures were inactive: -0.846, inactive: -1.21 and inactive: -1.4.
For `CCC(C)C(N)C(=O)NCCN1CCOCC1` (stereo not given) the same measures were inactive: -0.869, inactive: -1.8 and inactive: 0.53.
In the case of `CCCc1c(OCCCCc2nnn[nH]2)ccc(C(C)=O)c1O` [Tomelukast], the TEAD-luciferase reporter activity was inactive: 0.466 (compound concentration: 200 nM), inactive: -0.715 (compound concentration: 2 uM) and inactive: -1.86 (compound concentration: 10 uM).
